Results of single-concentration screens

Measurements from “University of Dundee, Small-Polar-MMV Screening Library” (2021), ChEMBL document CHEMBL3988442.

Mtb cholesterol medium: 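Phenotypic screen: M. tuberculosis growth, cholesterol and DPPC medium, 4 days; the read-out is not stated. Compounds at 50 µM. Higher reads as more growth inhibition (inferred: compounds with an IC50 in retests scored well above the rest). Of about 69,000 compounds tested this way, about 370 (0.54%) reached 50% or more in at least one test.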
Mtb glucose medium: 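Phenotypic screen: M. tuberculosis growth, glucose 7H9 medium, 3 days; the read-out is not stated. Compounds at 50 µM. The record gives no direction; compounds that gave an IC50 in retests scored well above the rest, so higher reads as more growth inhibition. About 69,000 compounds were tested under these conditions; 1.1% (about 760) showed 50% or more at least once.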

The filed quantity is “Percent Effect” (%). The controls that fix the scale are not given in the record; negative values are as filed. Compounds were drawn at random from those tested, without regard to their results. Two or more numbers in one place are separate tests of the same structure; such repeats can differ widely.

compound: CCN1CC(C(=O)N2CCC(Oc3ccccc3Cl)CC2)CC1=O (configuration not stated)
Mtb cholesterol medium: -12.77
Mtb glucose medium: -60.04

compound: CN(C)C(=O)c1cccnc1-c1ccc2c(c1)OCCO2
Mtb cholesterol medium: 20.94 and -7.271
Mtb glucose medium: 24.52

compound: COc1cc2c(cc1C(=O)N1CCCCC1c1ccccn1)CCC2 (configuration not stated)
Mtb cholesterol medium: 8.069
Mtb glucose medium: -5.896

compound: CC(=O)N1CCCC1C(=O)NCCOc1c(C)cccc1C (configuration not stated)
Mtb cholesterol medium: -6.793
Mtb glucose medium: 31.27

compound: CC(C)N(C)Cc1cc(=O)n2c(n1)CN(C(=O)c1ccnnc1)CCC2
Mtb cholesterol medium: 0.4449
Mtb glucose medium: -2.057

compound: COc1cccc(C(=O)NS(=O)(=O)c2cccc(C#N)c2)c1
Mtb cholesterol medium: 1.785
Mtb glucose medium: 21.73

compound: Cc1cc(C)n(CCC(=O)N2CCCC(n3cncn3)C2)n1 (configuration not stated)
Mtb cholesterol medium: -14.54
Mtb glucose medium: -9.983

compound: CN1CCC(N(Cc2ccco2)S(=O)(=O)c2cc(Br)ccc2Br)CC1
Mtb cholesterol medium: 13.82
Mtb glucose medium: 41.86

compound: Cc1nc(-c2ccncc2)ncc1C(C)NC(=O)CN1CCCCC1 (configuration not stated)
Mtb cholesterol medium: 7.111
Mtb glucose medium: -5.978

compound: CCCC1SCCN1C(=O)c1ccc(-n2ncc(C#N)c2N)cc1 (configuration not stated)
Mtb cholesterol medium: -2.754
Mtb glucose medium: 37.14

compound: O=c1cc(C2CCNCC2)nc(Cc2cccc(Cl)c2)[nH]1
Mtb cholesterol medium: 10.85
Mtb glucose medium: 3.032

compound: Cc1cc(C(=O)NC(COCC(C)C)c2ccco2)no1 (configuration not stated)
Mtb cholesterol medium: -7.979
Mtb glucose medium: 4.889

compound: CCOc1ccc(NCc2cnc(N3CCN(C)CC3)nc2)cn1
Mtb cholesterol medium: -2.435
Mtb glucose medium: -14.54

compound: O=C(NCc1nncn1C1CC1)C1(c2cccc(F)c2)CCOCC1
Mtb cholesterol medium: -1.319
Mtb glucose medium: 31.53

compound: Cl.Fc1ccccc1CNc1ccnc(C2CCNCC2)c1
Mtb cholesterol medium: 7.537
Mtb glucose medium: 1.242

compound: COCc1nc(CNC(=O)c2cc(C)c(C)[nH]c2=O)no1
Mtb cholesterol medium: -0.9808 and -10.45
Mtb glucose medium: -41.26

compound: Cc1occc1C(=O)N1CCC2(CCCN(CC3CC3)C2=O)C1 (configuration not stated)
Mtb cholesterol medium: -6.499
Mtb glucose medium: 21.99 and 2.716

compound: CC(C)(O)CCc1cccc(C(=O)N2CCC3(CCO3)CC2)c1
Mtb cholesterol medium: -12.73
Mtb glucose medium: 2.442

compound: Cc1nnc(N2CC[C@H](OCC3CC3)[C@@H](Cc3ccccc3)C2)s1.O=C(O)C(F)(F)F
Mtb cholesterol medium: 10.19
Mtb glucose medium: 33.85

compound: Cc1cc(=O)n2ncnc2n1CC(O)c1ccccc1 (configuration not stated)
Mtb cholesterol medium: -11.38
Mtb glucose medium: 8.946

compound: NC(=O)C1CCCN1C1CCN(C(=O)c2cccc3c2OCO3)CC1 (configuration not stated)
Mtb cholesterol medium: -6.278
Mtb glucose medium: -19.68

compound: Cn1cnnc1C1CCCN(C(=O)c2cc(-c3ccccc3)on2)C1 (configuration not stated)
Mtb cholesterol medium: -13.77
Mtb glucose medium: 4.192

compound: O=c1[nH]nc2nc(N3CCCC3)ccn12
Mtb cholesterol medium: -0.8161
Mtb glucose medium: -21.3

compound: COc1cc(NC(=O)c2cc(C)sc2C)c(C(=O)N(C)C)cc1OC
Mtb cholesterol medium: -4.18
Mtb glucose medium: -4.004

compound: Cn1cc(C2CCCN2C(=O)c2ccc(NC3CC3)nc2)cn1 (configuration not stated)
Mtb cholesterol medium: -5.961
Mtb glucose medium: -12

compound: OCCc1cc(CC2(NCc3ccc(C(F)(F)F)cc3)COC2)no1
Mtb cholesterol medium: 9.279
Mtb glucose medium: 7.978 and 1.455

compound: CCn1ccnc1CN1CCCN(C(=O)COC2CCCCC2)CC1
Mtb cholesterol medium: -25.1
Mtb glucose medium: -18.34

compound: CCc1nnc(CN2CCN(C(C)=O)CC2)o1
Mtb cholesterol medium: 25.92
Mtb glucose medium: 2.871 and -8.103

compound: COCc1nc(CNC2CSCCSC2)no1
Mtb cholesterol medium: -12.66
Mtb glucose medium: -5.596

compound: O=C(O)C(F)(F)F.O=C(O)C(F)(F)F.[H][C@@]12CN(Cc3ccsc3)C[C@@]1([H])N(Cc1ccncc1)C(=O)CO2
Mtb cholesterol medium: -3.304
Mtb glucose medium: -27.19

compound: CC(C)CN1CC(C(=O)NCc2ccnc(-n3cccn3)c2)CC1=O (configuration not stated)
Mtb cholesterol medium: -7.522
Mtb glucose medium: -2.407

compound: Cc1noc(-c2cnc(NC(C)C)nc2-c2ccco2)c1C
Mtb cholesterol medium: 17.18 and 33.01
Mtb glucose medium: 39.74

compound: N#CC1(NC(=O)c2ccc(F)cc2OC(F)F)CCOCC1
Mtb cholesterol medium: 1.216
Mtb glucose medium: -29.64

compound: CN1C(=O)CN(C(=O)c2ccc(=O)n(C)c2)c2ccccc21
Mtb cholesterol medium: 1.97
Mtb glucose medium: -56.92 and -4.487

compound: Cc1nc(C)n(CC2CCCN(Cc3cccc(C#N)c3)C2)n1 (configuration not stated)
Mtb cholesterol medium: 2.992
Mtb glucose medium: -15.04

compound: CCn1nc(C)c(CN(CCCOC)Cc2ccccn2)c1C.O=C(O)CC(O)(CC(=O)O)C(=O)O
Mtb cholesterol medium: -54.27
Mtb glucose medium: 12.07

compound: CCCC1(CO)CCCN(Cc2ncccn2)C1 (configuration not stated)
Mtb cholesterol medium: -1.676
Mtb glucose medium: 13.01

compound: COc1cccc(C(=O)Nc2ccc(OC3CCN(C)CC3)cc2)c1
Mtb cholesterol medium: 11.39 and -0.7655
Mtb glucose medium: 23.37

compound: O=C(C1CCS(=O)(=O)C1)N1CCN(c2cnccn2)CC1 (configuration not stated)
Mtb cholesterol medium: -9.099
Mtb glucose medium: -29.94

compound: CCOCCN1CCN(CCC(=O)N2CCCCC2)CC1C (configuration not stated)
Mtb cholesterol medium: 1.844
Mtb glucose medium: -11.08

compound: COC(=O)c1sc(NCc2ccc(N3CCC(O)CC3)c(F)c2)nc1Cl
Mtb cholesterol medium: 0.5783
Mtb glucose medium: 4.585

compound: O=C(Cc1cccc(F)c1)NCCCNC(=O)c1cccc(O)c1
Mtb cholesterol medium: -8.735
Mtb glucose medium: -2.288

4 of the entries, repeated:

| compound | Mtb cholesterol medium | Mtb glucose medium |
|---|---|---|
| `CCCC1SCCN1C(=O)c1ccc(-n2ncc(C#N)c2N)cc1` (configuration not stated) | -2.754 | 37.14 |
| `O=c1cc(C2CCNCC2)nc(Cc2cccc(Cl)c2)[nH]1` | 10.85 | 3.032 |
| `O=c1[nH]nc2nc(N3CCCC3)ccn12` | -0.8161 | -21.3 |
| `CN1C(=O)CN(C(=O)c2ccc(=O)n(C)c2)c2ccccc21` | 1.97 | -56.92 and -4.487 |